No constants are given. Whether binding was seen depends on the method and setting. Binding seen in cells or lysates may run through a third protein. Some results given as binding are weak or reduced against the parent protein; the word gives no strength.

Test [1] concerns the target T1, calsenilin (CSEN), endogenous in mouse hippocampus or brain (mouse (endogenous in hippocampus)) (UniProt Q9QXT8).
T1 sequence: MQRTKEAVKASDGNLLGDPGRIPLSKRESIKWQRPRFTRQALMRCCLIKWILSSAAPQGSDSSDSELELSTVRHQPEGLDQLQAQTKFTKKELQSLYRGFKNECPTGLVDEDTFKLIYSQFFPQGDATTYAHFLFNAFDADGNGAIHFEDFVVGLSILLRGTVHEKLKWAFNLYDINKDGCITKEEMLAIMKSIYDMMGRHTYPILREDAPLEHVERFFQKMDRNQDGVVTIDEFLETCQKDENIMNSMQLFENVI
Description: co-IP; in vivo: hippocampal lysates (RIPA buffer with protease and phosphatase inhibitors) of wild-type, PLPP/CIN^Tg and PLPP/CIN^-/- mice; saline or 2 h after kainic acid; PLPP/CIN^-/- mice also with vehicle, IC261 or CKI-7; primary antibody and protein G sepharose at 4°C overnight, western blot. On the technique in general: Immunoblotting shows a protein as a band on a membrane.

The target of test [2] is T2, Kv4.2 (an A-type K+ channel), endogenous in mouse hippocampus or brain (mouse (endogenous in hippocampus)) (UniProt Q9Z0V2).
T2 sequence: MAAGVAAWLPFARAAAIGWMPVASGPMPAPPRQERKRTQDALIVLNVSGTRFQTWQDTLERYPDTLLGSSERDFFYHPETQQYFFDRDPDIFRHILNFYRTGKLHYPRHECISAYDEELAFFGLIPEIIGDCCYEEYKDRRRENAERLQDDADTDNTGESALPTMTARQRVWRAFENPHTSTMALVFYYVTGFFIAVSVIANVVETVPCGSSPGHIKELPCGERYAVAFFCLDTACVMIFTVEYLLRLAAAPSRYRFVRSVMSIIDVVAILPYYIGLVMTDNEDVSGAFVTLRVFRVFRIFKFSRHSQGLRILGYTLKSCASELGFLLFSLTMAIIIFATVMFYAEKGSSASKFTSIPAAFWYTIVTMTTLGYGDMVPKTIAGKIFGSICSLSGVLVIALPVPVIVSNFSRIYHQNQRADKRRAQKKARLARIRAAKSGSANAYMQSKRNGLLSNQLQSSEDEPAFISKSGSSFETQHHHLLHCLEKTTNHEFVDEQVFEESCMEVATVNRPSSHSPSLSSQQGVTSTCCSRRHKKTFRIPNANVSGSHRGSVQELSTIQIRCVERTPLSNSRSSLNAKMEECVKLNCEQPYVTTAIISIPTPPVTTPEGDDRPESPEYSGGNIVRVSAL
Description: co-IP; in vitro: crude extracts of PLPP/CIN^-/- mouse brain incubated with recombinant PLPP/CIN (10 ng/ul) or Tris buffer (vehicle) at 30°C for 1 h, without added CK1 or CSEN; co-precipitation and western blot.

Test [3] has as its target T2, Kv4.2 (an A-type K+ channel), endogenous in mouse hippocampus or brain (mouse (endogenous in hippocampus)). Description: co-IP; in vivo: hippocampal lysates (RIPA buffer with protease and phosphatase inhibitors) of wild-type, PLPP/CIN^Tg and PLPP/CIN^-/- mice; saline or 2 h after kainic acid; PLPP/CIN^-/- mice also with vehicle, IC261 or CKI-7; primary antibody and protein G sepharose at 4°C overnight, western blot.

Test [4] has as its target T3, GluN1 (an NMDAR subunit), endogenous in mouse hippocampus or brain (mouse (endogenous in hippocampus)), P35438. Description: co-IP; in vitro: crude extracts of PLPP/CIN^-/- mouse brain incubated with recombinant PLPP/CIN (10 ng/ul) or Tris buffer (vehicle) at 30°C for 1 h, without added CK1 or CSEN; co-precipitation and western blot. The note with it: remark: other sources report otherwise.

Test [5] deals with T3, GluN1 (an NMDAR subunit), endogenous in …. Description: co-IP; in vivo: hippocampal lysates (RIPA buffer with protease and phosphatase inhibitors) of wild-type, PLPP/CIN^Tg and PLPP/CIN^-/- mice; saline or 2 h after kainic acid; PLPP/CIN^-/- mice also with vehicle, IC261 or CKI-7; primary antibody and protein G sepharose at 4°C overnight, western blot. The note with it: remark: other sources report otherwise.

For test [6], the target named is T1, calsenilin (CSEN), endogenous in mouse hippocampus or brain (mouse (endogenous in hippocampus)). The experiment in a line: co-IP; in vitro: recombinant PLPP/CIN (10 ng/ul) added to crude extracts of PLPP/CIN^-/- mouse brain at 30°C for 1 h; co-precipitation with endogenous CSEN and western blot; only the binder purified.

B1: pyridoxal-5'-phosphate phosphatase/chronophin (PLPP/CIN) in mouse hippocampus (enzyme, UniProt P60487 1-292)
chain: MARCERLRGAALRDVLGQAQGVLFDCDGVLWNGERIVPGAPELLQRLARAGKNTLFVSNNSRRARPELALRFARLGFAGLRAEQLFSSALCAARLLRQRLSGPPDASGAVFVLGGEGLRAELRAAGLRLAGDPGEDPRVRAVLVGYDEQFSFSRLTEACAHLRDPDCLLVATDRDPWHPLSDGSRTPGTGSLAAAVETASGRQALVVGKPSPYMFQCITEDFSVDPARTLMVGDRLETDILFGHRCGMTTVLTLTGVSSLEEAQAYLTAGQRDLVPHYYVESIADLMEGLED
Consider B1, for which, in test [1], the binding entry was “binds”.

B2: calsenilin (CSEN), endogenous in mouse hippocampus or brain (protein, UniProt Q9QXT8 1-256)
chain: MQRTKEAVKASDGNLLGDPGRIPLSKRESIKWQRPRFTRQALMRCCLIKWILSSAAPQGSDSSDSELELSTVRHQPEGLDQLQAQTKFTKKELQSLYRGFKNECPTGLVDEDTFKLIYSQFFPQGDATTYAHFLFNAFDADGNGAIHFEDFVVGLSILLRGTVHEKLKWAFNLYDINKDGCITKEEMLAIMKSIYDMMGRHTYPILREDAPLEHVERFFQKMDRNQDGVVTIDEFLETCQKDENIMNSMQLFENVI
As to B2, the binding result in test [2] and in test [3] was “binds” in each case.

B3: calsenilin (CSEN), endogenous in mouse hippocampus or brain, Q9QXT8 1-256 (protein)
chain: MQRTKEAVKASDGNLLGDPGRIPLSKRESIKWQRPRFTRQALMRCCLIKWILSSAAPQGSDSSDSELELSTVRHQPEGLDQLQAQTKFTKKELQSLYRGFKNECPTGLVDEDTFKLIYSQFFPQGDATTYAHFLFNAFDADGNGAIHFEDFVVGLSILLRGTVHEKLKWAFNLYDINKDGCITKEEMLAIMKSIYDMMGRHTYPILREDAPLEHVERFFQKMDRNQDGVVTIDEFLETCQKDENIMNSMQLFENVI
On to B3, for which the binding result in test [4] and in test [5] was “binds” in each case.

B4: recombinant human pyridoxal-5'-phosphate phosphatase/chronophin (PLPP/CIN) (enzyme, UniProt Q96GD0 1-296)
chain: MARCERLRGAALRDVLGRAQGVLFDCDGVLWNGERAVPGAPELLERLARAGKAALFVSNNSRRARPELALRFARLGFGGLRAEQLFSSALCAARLLRQRLPGPPDAPGAVFVLGGEGLRAELRAAGLRLAGDPSAGDGAAPRVRAVLVGYDEHFSFAKLREACAHLRDPECLLVATDRDPWHPLSDGSRTPGTGSLAAAVETASGRQALVVGKPSPYMFECITENFSIDPARTLMVGDRLETDILFGHRCGMTTVLTLTGVSRLEEAQAYLAAGQHDLVPHYYVESIADLTEGLED
Regarding B4, the binding entry in test [6] is given as “binds”.

For the origin of these results see article PMC5622162.
